Reference: EP4000606A1, “COMPOUNDS FOR CORONAVIRUS INFECTION TREATMENT AND/OR PREVENTION” (priority 2020, dated 2022)

Tested on: SARS-CoV-2
Experiment: microbe, parasite or virus in culture
Assay type: cell-based
Settings: Severe acute respiratory syndrome coronavirus 2, 120 h

**Q.** Which IC50 does the source give for `Nc1ccc(C(=O)Nc2cccc(-c3nc(N4CCOCC4)c4oc5ncccc5c4n3)c2)cn1` [compound 104, 6-Amino-N-[3-[4-(4-morpholinyl)pyrido[3',2':4,5]furo [3,2-d]pyrimidin-2-yl]phenyl]pyridine-3-carboxamide] here?
**A.** Its IC50 is 4.73 µM.
